No constants are given. Whether binding was seen depends on the method and setting. For some assays here: In cells and extracts the contact can be indirect. Some entries that bind do so weakly or less than the wild type. For some assays here: Where a sequence is shown, tags or fusion partners need not be part of it. Values belong to the binder of their own block, whether it stands above or below them.
Tests used:
[1] = target: T1, EGFP-PPM1D (full length, wild type) (human) (UniProt O15297); experiment: co-IP; HEK293 transfected with EGFP-PPM1D constructs; extracts with bensonase on GFP trap; immunoblot of endogenous proteins
T1 sequence: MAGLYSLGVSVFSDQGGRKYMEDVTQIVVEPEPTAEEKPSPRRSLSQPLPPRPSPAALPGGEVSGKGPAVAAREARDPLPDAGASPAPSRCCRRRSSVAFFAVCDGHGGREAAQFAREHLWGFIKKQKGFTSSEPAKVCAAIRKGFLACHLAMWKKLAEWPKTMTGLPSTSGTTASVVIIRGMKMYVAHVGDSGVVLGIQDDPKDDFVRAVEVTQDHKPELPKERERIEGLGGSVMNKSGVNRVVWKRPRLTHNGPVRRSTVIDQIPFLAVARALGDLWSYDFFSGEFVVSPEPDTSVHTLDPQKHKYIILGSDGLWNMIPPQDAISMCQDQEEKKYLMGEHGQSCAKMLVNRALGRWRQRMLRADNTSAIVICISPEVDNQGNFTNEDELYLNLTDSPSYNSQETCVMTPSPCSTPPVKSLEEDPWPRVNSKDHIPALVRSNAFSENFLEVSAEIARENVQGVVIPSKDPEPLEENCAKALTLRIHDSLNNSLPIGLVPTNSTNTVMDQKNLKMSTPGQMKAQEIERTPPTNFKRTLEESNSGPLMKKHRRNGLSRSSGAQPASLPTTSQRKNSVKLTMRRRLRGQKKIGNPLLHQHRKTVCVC

By UniProt entry, the sequences of proteins in these tests, tags left out. Where a name states a change or a piece, a line headed by the entry shows the natural chain unless it says otherwise.
UniProt Q15554: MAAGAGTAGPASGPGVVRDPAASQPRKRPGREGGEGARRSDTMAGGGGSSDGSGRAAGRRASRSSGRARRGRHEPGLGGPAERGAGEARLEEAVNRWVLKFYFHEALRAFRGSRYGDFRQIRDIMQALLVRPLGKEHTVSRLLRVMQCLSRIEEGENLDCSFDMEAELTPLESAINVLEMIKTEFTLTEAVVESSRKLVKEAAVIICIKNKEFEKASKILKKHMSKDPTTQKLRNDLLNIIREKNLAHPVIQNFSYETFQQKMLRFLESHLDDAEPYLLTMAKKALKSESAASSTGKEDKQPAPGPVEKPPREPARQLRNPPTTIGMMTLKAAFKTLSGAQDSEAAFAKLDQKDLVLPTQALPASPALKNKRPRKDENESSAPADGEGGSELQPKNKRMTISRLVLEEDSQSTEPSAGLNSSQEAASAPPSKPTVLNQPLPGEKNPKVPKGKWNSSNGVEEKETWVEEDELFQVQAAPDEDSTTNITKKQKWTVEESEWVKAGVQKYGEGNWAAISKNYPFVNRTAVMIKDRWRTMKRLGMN
UniProt P54274: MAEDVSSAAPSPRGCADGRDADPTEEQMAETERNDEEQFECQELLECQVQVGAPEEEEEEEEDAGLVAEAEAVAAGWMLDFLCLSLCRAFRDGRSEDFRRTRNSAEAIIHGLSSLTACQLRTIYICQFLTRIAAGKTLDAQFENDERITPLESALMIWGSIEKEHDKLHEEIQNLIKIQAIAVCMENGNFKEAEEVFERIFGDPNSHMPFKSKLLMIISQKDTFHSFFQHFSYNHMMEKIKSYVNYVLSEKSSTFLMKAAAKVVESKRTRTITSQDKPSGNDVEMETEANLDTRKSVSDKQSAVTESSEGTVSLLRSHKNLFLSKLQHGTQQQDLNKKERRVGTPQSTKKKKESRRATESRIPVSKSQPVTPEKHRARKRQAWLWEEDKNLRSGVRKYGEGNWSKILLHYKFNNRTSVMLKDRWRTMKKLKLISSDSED

[2] = target: wild-type EGFP-TRF2 expressed in HEK293 cells (human) (UniProt Q15554); experiment: co-IP; HEK293 expressing EGFP-TRF2 variants; extracts on GFP Trap; immunoblot of endogenous TIN2 (legend: DMSO or PPM1D inhibitor for 4 h)
[3] = target: EGFP-TRF2-S410E (phosphorylation mimicking mutant) (human) (UniProt Q15554); experiment: as above
[4] = target: EGFP-TRF2-S410A (non-phosphorylatable mutant) (human) (UniProt Q15554); experiment: as above
[5] = target: TRF2, endogenous in U2OS (human (endogenous in U2OS)) (UniProt Q15554); experiment: proximity ligation; fixed cells (MCF7, U2OS), endogenous proteins, pairs of primary antibodies, Duolink PLA probes; cells also treated with PPM1D inhibitor, siRNA to TRF2 or PPM1D knock-out
[6] = target: isolated EGFP-TRF2 (in vitro pull-down) (human) (UniProt Q15554); experiment: pull-down; isolated EGFP-TRF2 or EGFP alone with purified His-PPM1D in vitro; both purified
[7] = target: TRF2, endogenous in MCF7 (human (endogenous in MCF7)) (UniProt Q15554); experiment: proximity ligation; fixed cells (MCF7, U2OS), endogenous proteins, pairs of primary antibodies, Duolink PLA probes; cells also treated with PPM1D inhibitor, siRNA to TRF2 or PPM1D knock-out
[8] = target: T2, RAP1, endogenous in MCF7 (human (endogenous in MCF7)) (UniProt Q9NYB0); experiment: as above
T2 sequence: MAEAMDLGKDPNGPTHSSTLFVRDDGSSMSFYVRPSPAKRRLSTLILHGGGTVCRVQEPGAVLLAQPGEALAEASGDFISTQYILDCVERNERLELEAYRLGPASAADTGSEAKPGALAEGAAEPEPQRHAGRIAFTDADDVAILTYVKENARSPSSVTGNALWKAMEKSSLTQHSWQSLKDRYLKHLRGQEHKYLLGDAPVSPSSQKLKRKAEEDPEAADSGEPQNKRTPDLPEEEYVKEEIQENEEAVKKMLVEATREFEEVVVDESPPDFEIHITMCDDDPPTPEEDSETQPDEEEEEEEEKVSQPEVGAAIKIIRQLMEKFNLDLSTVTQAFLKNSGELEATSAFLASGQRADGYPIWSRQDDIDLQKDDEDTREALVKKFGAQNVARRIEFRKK

[9] = target: EGFP-TRF1 expressed in MCF7 cells (UniProt P54274); experiment: co-IP; MCF7 transfected with EGFP-TRF1 or EGFP-TRF2; extracts with bensonase on GFP trap; immunoblot of endogenous PPM1D
[10] = target: EGFP-TRF2 expressed in MCF7 cells (human) (UniProt Q15554); experiment: as above

B2: TIN2, endogenous in HEK293 (protein, UniProt Q9BSI4 1-451)
chain: MATPLVAGPAALRFAAAASWQVVRGRCVEHFPRVLEFLRSLRAVAPGLVRYRHHERLCMGLKAKVVVELILQGRPWAQVLKALNHHFPESGPIVRDPKATKQDLRKILEAQETFYQQVKQLSEAPVDLASKLQELEQEYGEPFLAAMEKLLFEYLCQLEKALPTPQAQQLQDVLSWMQPGVSITSSLAWRQYGVDMGWLLPECSVTDSVNLAEPMEQNPPQQQRLALHNPLPKAKPGTHLPQGPSSRTHPEPLAGRHFNLAPLGRRRVQSQWASTRGGHKERPTVMLFPFRNLGSPTQVISKPESKEEHAIYTADLAMGTRAASTGKSKSPCQTLGGRALKENPVDLPATEQKENCLDCYMDPLRLSLLPPRARKPVCPPSLCSSVITIGDLVLDSDEEENGQGEGKESLENYQKTKFDTLIPTLCEYLPPSGHGAIPVSSCDCRDSSRPL
binding [2]: binds | binding [3]: binds | binding [4]: binds

B3: TIN2, endogenous in U2OS (protein, UniProt Q9BSI4 1-451)
chain: B2 chain
binding [5]: binds

B5: PPM1D, endogenous in U2OS (enzyme, UniProt O15297 1-605)
chain: T1 sequence
binding [5]: binds

B6: PPM1D, endogenous in MCF7 (enzyme, UniProt O15297 1-605)
chain: T1 sequence
binding [7]: binds | binding [8]: binds | binding [9]: binds | binding [10]: binds

More lines, now with the values ahead:

binding [1]: binds
B1: TRF2-interacting telomeric protein 1 (RAP1), endogenous in HEK293 (protein, UniProt Q9NYB0 1-399)
chain: T2 sequence

binding [6]: binds
B4: purified His-PPM1D (enzyme, UniProt O15297 1-605)
chain: T1 sequence

From article PMC9943673
